Assay results: PMC4600981
The exact form of at least one protein or probe is not confirmed. The comparison behind a weaker result is the experiment's own reference, which may not be listed here. Where a protein sequence is shown, tags need not be part of it.

Molecular target: T1, FvCamlp (Flammulina velutipes ATCC13547) (UniProt R4HKU2)
T1 sequence (looked up): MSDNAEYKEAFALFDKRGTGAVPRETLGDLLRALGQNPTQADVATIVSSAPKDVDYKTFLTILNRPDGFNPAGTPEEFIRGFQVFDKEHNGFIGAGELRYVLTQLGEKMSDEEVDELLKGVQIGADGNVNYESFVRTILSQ
Assay: EMSA
Details: 5 mM EGTA, 1.0 ug protein; EMSA 5X binding buffer: 20% glycerol, 5 mM MgCl2, 2.5 mM EDTA, 2.5 mM DTT, 250 mM NaCl, 50 mM Tris-HCl pH 7.5, 0.25 mg/ml poly dA-dT; room temperature 30 min; recombinant protein; residues 1-141; protein details: GST (pGEX-4T2) removed by thrombin; label: 32P 5' end label; probe letters rebuilt from the primers and the genome

GAATTCGACACCGCGGGGTCGCCGAGGTAACATAACGTGAAGCATTGAATACGTTGCTAATTTTAGTGCTTCCCAGAACGTGCCCAGCACTTTGAGGCGCTTCCAAACTAGT (double strand) [100 bp OXDC promoter]
binding result: binds more weakly
